{"source": "PubChem BioAssay AID743448 (Peter MacCallum Cancer Centre, 2014)", "aim": "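Test whether knock-downs sensitising to vorinostat hold across several colon lines but not etoposide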 (follow-up of hits)", "system": "four human colon cancer cell lines: HCT116-VR (vorinostat-resistant HCT116 derivative), SW480, SW620 and LIM1215", "reagents": "siRNA pool against human genes, 40 nM siRNA pool", "time to read-out": "drug added two days after transfection, read one day later", "treatment": "vorinostat 2.5 µM on one half of each plate, etoposide 5 µM on the other half", "cell line and drug panel": "SW620 cells with vorinostat", "measurement": "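Caspase luminescence and viability fluorescence, each expressed relative to mock transfection and also as robust z-scores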", "reading the numbers": "caspase ratio to mock: higher = more caspase activity than mock; viability ratio to mock: higher = more live cells than mock", "active means": "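Hit means caspase ratio to mock at least 1.6, or viability ratio to mock at most 0.75; wells with strong death in the absence of drug get no call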", "calls": "active = caspase or viability hit in this panel; inactive = no change, or unhealthy well", "note": "This is an unselected part of the 106 reagents, under one of the conditions tested. 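Calls are per line and drug panel including etoposide, not vorinostat-specific; gene picks needed hits in two or more extra lines with vorinostat versus etoposide.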 Further read-outs or replicates are left out here."}
{"Gene": "AMDHD2 (amidohydrolase domain containing 2)", "caspase ratio to mock": 1.27, "viability ratio to mock": 0.94, "outcome": "inactive"}
{"Gene": "NPEPPS (aminopeptidase puromycin sensitive)", "caspase ratio to mock": 0.82, "viability ratio to mock": 0.57, "outcome": "active"}
{"Gene": "PUF60 (poly(U) binding splicing factor 60)", "caspase ratio to mock": 1.31, "viability ratio to mock": 0.83, "outcome": "inactive"}
{"Gene": "NUP133 (nucleoporin 133)", "caspase ratio to mock": 1.1, "viability ratio to mock": 0.6, "outcome": "active"}
{"Gene": "VPS4A (vacuolar protein sorting 4 homolog A)", "caspase ratio to mock": 1.5, "viability ratio to mock": 0.54, "outcome": "active"}
{"Gene": "GATA1 (GATA binding protein 1)", "caspase ratio to mock": 1.52, "viability ratio to mock": 0.8, "outcome": "inactive"}
{"Gene": "PCP4 (Purkinje cell protein 4)", "caspase ratio to mock": 1.4, "viability ratio to mock": 0.86, "outcome": "inactive"}
{"Gene": "MED28 (mediator complex subunit 28)", "caspase ratio to mock": 1.47, "viability ratio to mock": 0.92, "outcome": "inactive"}
{"Gene": "OSBPL6 (oxysterol binding protein like 6)", "caspase ratio to mock": 1.23, "viability ratio to mock": 0.98, "outcome": "inactive"}
{"Gene": "SIN3A (SIN3 transcription regulator family member A)", "caspase ratio to mock": 1.36, "viability ratio to mock": 1, "outcome": "inactive"}
{"Gene": "CCDC59 (coiled-coil domain containing 59)", "caspase ratio to mock": 1.36, "viability ratio to mock": 0.95, "outcome": "inactive"}
{"Gene": "THAP3 (THAP domain containing 3)", "caspase ratio to mock": 1.42, "viability ratio to mock": 0.85, "outcome": "inactive"}

Records listed so far whose target name starts with N or n:
{"Gene": "NPEPPS (aminopeptidase puromycin sensitive)", "caspase ratio to mock": 0.82, "viability ratio to mock": 0.57, "outcome": "active"}
{"Gene": "NUP133 (nucleoporin 133)", "caspase ratio to mock": 1.1, "viability ratio to mock": 0.6, "outcome": "active"}
